In all, about 360,000 compounds went through this assay and about 7,500 (2.1%) were called active. The inconclusive results got no clear call from the source; some entries with a clear call stand among them for comparison. Calls follow the shape of the dose curve; as a rule, active = well fitted inhibition curve with a large enough effect; inconclusive = small, poorly fitted or top-dose-only effect, or effect the other way; inactive = flat fitted curve, though single readings scatter. Potencies of inconclusive entries are doubtful fits and often do not repeat.
assay: Nrf2 qHTS screen for inhibitors; conditions: A549 ARE-Fluc reporter, luciferase luminescence, 18-24 h; series mostly up to 46 µM; also: nearly all actives have a fitted effect of over 60% in size
How it was run: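 Nrf2 function is reported as luminescence of an ARE-controlled luciferase in A549 cells. Compounds were tested at several concentrations, and a CellTiter-Fluor read on the same wells flagged cytotoxicity.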
Potency is read from the fitted curve at half-maximal effect.

SMILES | Potency
Cc1ccc2[nH]cc(CCCN3C(=O)c4ccccc4C3=O)c2c1 | inconclusive: 0.0731 µM [falling, partial curve, poor fit]
Cc1[nH]n2c(=O)cc(C(C)C)nc2c1-c1ccccc1 | inconclusive: 23.1 µM [falling, single point]
COC(=O)c1sccc1NC(=O)c1ccccc1 | inconclusive: 16.4 µM [activator, single point]
CN(Cc1ccccc1)c1nc2c(c(=O)[nH]c(=O)n2C)n1CCCSc1ncccn1 | inactive
N/C(=N\OC(=O)Cc1ccccc1[N+](=O)[O-])c1ccccn1 | inconclusive: 16.4 µM [activator, single point]
CCCc1ccc(OCc2ccc(C(=O)NN)o2)c(OC)c1 | inconclusive: 2.91 µM [activator, partial curve]
COc1ccc(N=Cc2cc(Cc3ccccc3Cl)cc([N+](=O)[O-])c2O)cc1OC | inconclusive: 13 µM [falling, partial curve, poor fit]
COC(=O)c1c(NS(=O)(=O)c2cccs2)sc2c1CCCC2 | inconclusive: 9.2 µM [falling, partial curve]
NC(=O)[C@H]1CC2(CC(c3cccc(NC(=O)COc4ccc(Cl)cc4)c3)=NO2)CN1C(=O)c1ccccc1C(=O)c1ccccc1 (stereo partly drawn) | inconclusive: 29.1 µM [falling, single point]
Fc1ccccc1Cn1nnc2c(-n3ccnc3)ncnc21 | inconclusive: 13 µM [falling, partial curve, poor fit]
O=C(N/N=C/c1ccccc1)c1ccco1 | inconclusive: 9.2 µM [activator, partial curve]
O=C(CSCc1cccc(Cl)c1)Nc1ccccc1-c1ccccc1 | inconclusive: 14.6 µM [falling, partial curve, poor fit]
Cc1ccc(NC2=CC(=O)C(=O)c3ccccc32)cc1 | inactive
CC1CCc2c(nc3ncnn3c2NCCN(C)C)C1 (stereo not drawn) | inconclusive: 8.2 µM [activator, partial curve, poor fit]
Cc1cccc2nc(CNC(=O)CC3C(=O)NCCN3Cc3cccc(F)c3)cn12 (stereo not drawn) | inconclusive: 25.9 µM [falling, single point]
CCn1c(C(=O)Nc2cc(C)cc(C)c2)cc2sc(Cl)cc21 | inconclusive: 2.06 µM [activator, partial curve]
CCC(C)c1ccc(O)c(NC(=O)c2cncc(Br)c2)c1 (stereo not drawn) | inconclusive: 29.1 µM [falling, single point]
CCOC(=O)CN(C)C(=O)CCc1nnc(-c2ccsc2)o1 | inconclusive: 29.1 µM [activator, single point]
Cc1ccc(NC(=O)CSc2nnc(-c3cc4occc4n3C)n2-c2ccccc2C)cc1F | inconclusive: 29.1 µM [falling, single point]
CCOC(=O)C(Cc1ccccc1)(NC(C)=O)C(=O)OCC | inconclusive: 0.82 µM [falling, full curve, poor fit]
COCCNc1nc2sc3c(c2c(=O)n1Cc1ccco1)CCCCC3 | inconclusive: 2.91 µM [activator, full curve]
O=C(c1ccccc1)C1CN(c2ccccc2)CC1c1ccc(Cl)cc1 (stereo not drawn) | inactive

Molecules shown so far containing an NH in an aromatic ring:
SMILES | Potency
Cc1ccc2[nH]cc(CCCN3C(=O)c4ccccc4C3=O)c2c1 | inconclusive: 0.0731 µM [falling, partial curve, poor fit]
Cc1[nH]n2c(=O)cc(C(C)C)nc2c1-c1ccccc1 | inconclusive: 23.1 µM [falling, single point]
CN(Cc1ccccc1)c1nc2c(c(=O)[nH]c(=O)n2C)n1CCCSc1ncccn1 | inactive

More structures.

SMILES | Potency
Cc1ccc(S(=O)(=O)N2CCN(C(=O)COC(=O)/C=C/c3ccc(OC(F)F)cc3)CC2)cc1 | inactive
COc1cccc(/C=C/C(=O)Nc2ccc(OC)nc2)c1 | inactive
C=CCOc1ccc(CN(C)Cc2nc3cc(C(F)(F)F)ccc3c(=O)[nH]2)cc1 | inconclusive: 2.59 µM [falling, full curve]
CCN(C(=O)Cn1nc(Cc2cccnc2)c2ccccc2c1=O)c1cc(C)ccc1C | active: 18.4 µM
Cc1ccc(C(=O)Nc2cc3c(cc2Cl)OCCCO3)cc1 | inconclusive: 10.3 µM [activator, partial curve]
O=C(Nc1ccccn1)C1COc2ccccc2O1 (stereo not drawn) | inconclusive: 7.31 µM [activator, partial curve]
CCc1nnc2c(NCCc3ccccc3)nc3ccccc3n12 | inactive
O=C(CSc1nc(N2CCOCC2)nc(N2CCOCC2)n1)Nc1ccc([N+](=O)[O-])cc1 | inconclusive: 11.6 µM [falling, partial curve, poor fit]
Cc1ccc(-n2c(=O)c3sccc3n(Cc3cc(=O)n4ccccc4n3)c2=O)cc1 | inactive
O=C(Nc1ccc(Cl)cn1)c1ccc(Oc2ccccc2)cc1 | inconclusive: 0.92 µM [activator, full curve]
CN(C)C(=O)CCc1ccc2c3c([nH]c2c1)[C@]1(C)[C@@H](C(=O)N2CCCCC2)C[C@H](CC(=O)NC(C)(C)C)C(=O)N1CC3 | inactive
COc1ccccc1NC1=C(NC(C)=O)C(=O)c2ccccc2C1=O | inactive
CCOC(=O)N1CCN(C(=O)c2cccc(S(=O)(=O)Nc3ccccc3Cl)c2)CC1 | inconclusive: 2.31 µM [falling, partial curve]
COc1ccc(-c2csc3nc(-c4cccnc4)nc(Cl)c23)cc1OC | inconclusive: 0.461 µM [falling, full curve]
CC1CCN(S(=O)(=O)c2ccc3c(c2)c(=O)c(C(=O)NCc2ccco2)cn3C)CC1 | inconclusive: 16.4 µM [falling, single point]
COC(=O)c1cc(-c2cccc([N+](=O)[O-])c2)c2c(=O)[nH]c(=O)n(C)c2n1 | inconclusive: 1.16 µM [falling, full curve, poor fit]
CN(C)CCCn1cnc2c(c1=N)C(c1ccccc1)c1ccc3ccccc3c1O2 (stereo not drawn) | inactive
CCCCNC(=O)CNC(=S)N(Cc1ccccc1)Cc1cccs1 | active: 23.1 µM
Cc1cccc(C)c1OCC(=O)Nc1cccc(S(=O)(=O)N2CCCC2)c1 | active: 14.6 µM
COc1cccc(CNc2ccc3c(c2)ncn3C)c1OC | inconclusive: 6.51 µM [activator, full curve]
CC1=CN2C(=N)/C(=C/c3ccco3)C(=O)N=C2S1 | inconclusive: 1.03 µM [activator, full curve, poor fit]

From PubChem BioAssay AID504444 (National Center for Advancing Translational Sciences (NCATS), 2011)
